Some results were stated once for a whole list of compounds, not compound by compound.
Assay: specificity by ELISA (cross-reactivity)
Format: binding
Conditions: with other seven common neonicotinoid insecticides

B1: intact recombinant antibody against clothianidin: Recombinant mouse IgG1/kappa antibody, VH SEQ ID NO: 2, VL SEQ ID NO: 4, expressed in HEK293F cells (antibody, listed as Mus musculus, V domains shown)
VH: EVQLQQSGPELVKPGASVKMSCKASGYTFTNYVMHWVKQKPGQGLEWIGFFYPYIDYTKYNEMFKGKATLTSDTSSSTAYMELSGLTSEDSAVYFCARSQFFYRYDYFDYWGQGTALTVSS
VL: DVLMTQTPLSLPVSLGDQASISCRSSQNIVHSNGNTYLEWYLQKPGQSPKVLIYKVSNRFSGVPDRFSGSGSGTDFTLKINRVEAEDLGIYYCFQGSHVPFTFGSGTKLEIK
cross-reactivity: < 0.1%
